This is an account of results in patent publication US20030216297A1, “Pharmaceutical composition” (SANKYO COMPANY, LIMITED, priority 2002, published 2003).

A short description of this data set: Immunological detection rate (OCIF by ELISA divided by protein by Lowry's method). The note with it: OCIF by ELISA (OI-19 / POD-OI-4) divided by protein by Lowry's method. (ELISA stands for enzyme-linked immunosorbent assay.)

As to “OCIF: recombinant dimeric human osteoclastogenesis inhibitory factor, molecular weight about 120000, non-complexed”, the “The immunological detection rate of OCIF/DS complex” value (“The immunological detection rate” below) worked out at 1.06.
With “Prep. 6: OCIF/DS5 complex: DS5 130 mg/ml, OCIF 6.5 mg/ml, 4 °C, pH 10.5, 48 h”, the “The immunological detection rate” value came out at 1.07.
For the substance “Prep. 7: OCIF/DS5 complex: DS5 130 mg/ml, OCIF 6.5 mg/ml, 4 °C, pH 10.5, 144 h”, the “The immunological detection rate” value came to 0.74.
For “Prep. 8: OCIF/DS5 complex: DS5 130 mg/ml, OCIF 6.5 mg/ml, 4 °C, pH 10.5, 288 h”, the “The immunological detection rate” value was 0.88.
The value for “Prep. 22: OCIF/DS5 complex: DS5 150 mg/ml, OCIF 5 mg/ml, 7 °C, pH 10.5, 168 h” was 1.06; that for “Prep. 24: OCIF/DS5 complex: DS5 150 mg/ml, OCIF 5 mg/ml, 25 °C, pH 10, 24 h” was 1.02.
Regarding “Prep. 25: OCIF/DS5 complex: DS5 130 mg/ml, OCIF 6.5 mg/ml, 4 °C, pH 10.5, 24 h”, the “The immunological detection rate” value is given as 0.87.
The value for “Prep. 27: OCIF/DS5 complex: DS5 150 mg/ml, OCIF 5 mg/ml, 4 °C, pH 10.5, 144 h” was 1.04.
